± gives the standard deviation of the averaged measurements. Values are relative to the signal before dosing, not to a vehicle control; the signal also falls without drug.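 Fibroblast labels name human fibroblasts: mostly primary ones from tissues such as uterus (C12385, HUF), lung (H6013), bone (Hs27A), adrenal (HADF) and skin (WS1), plus mammary HMF and breast cancer-associated Hs343T. The cancer cells are basal-like or mesenchymal-like triple-negative breast cancer lines. The paper calls a changed response a hit when it shifts by more than 3x the replicate standard deviation. The tissue of the other fibroblasts is not given here.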
Tested on: HCC1143
Test: relative JC-1 red fluorescence (viability) vs pre-drug, coculture with fibroblast (fraction); higher = more viable cancer cells
Description: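 JC-1 labelled TNBC cells cocultured 1:1 (1,500 cells each) with CellTrace Violet stained primary or stromal fibroblasts in 384-well plates in FluoroBrite medium, treated with one of 42 anticancer drugs at 0.1, 1, 10 or 100 uM. JC-1 red fluorescence (mitochondrial integrity in cancer cells only) was read by plate reader every 8 h for 72 h. Values are normalised to each well's pre-drug value. The stock of one drug was tenfold lower, so its dose labels may be too high.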

C=C1C[C@@H]2[C@H](CC[C@]3(C)C(=O)CC[C@@H]23)[C@@]2(C)C=CC(=O)C=C12 [Exemestane]
relative JC-1 red fluorescence
Conditions | 8 h | 16 h | 24 h | 32 h | 40 h | 48 h | 56 h | 64 h | 72 h
10 µM, coculture fibroblast: C12385 | 0.8707 ± 0.0024 | 0.802 ± 0.013 | 0.7473 ± 0.0014 | 0.683 ± 0.0035 | 0.609 ± 0.017 | 0.5751 ± 0.0042 | 0.533 ± 0.006 | 0.486 ± 0.013 | 0.47 ± 0.019
10 µM, coculture fibroblast: H6013 | 0.802 ± 0.03 | 0.724 ± 0.044 | 0.702 ± 0.066 | 0.708 ± 0.063 | 0.634 ± 0.077 | 0.626 ± 0.08 | 0.589 ± 0.092 | 0.564 ± 0.092 | 0.517 ± 0.098
10 µM, coculture fibroblast: H6019 | 0.8535 ± 0.0063 | 0.803 ± 0.013 | 0.769 ± 0.011 | 0.7249 ± 0.0054 | 0.6966 ± 0.0011 | 0.666 ± 0.026 | 0.623 ± 0.035 | 0.577 ± 0.038 | 0.535 ± 0.03
10 µM, coculture fibroblast: H6076 | 0.7983 ± 0.0057 | 0.792 ± 0.0082 | 0.751 ± 0.018 | 0.695 ± 0.032 | 0.661 ± 0.039 | 0.644 ± 0.04 | 0.619 ± 0.046 | 0.601 ± 0.041 | 0.611 ± 0.047
10 µM, coculture fibroblast: H6231 | 0.826 ± 0.042 | 0.924 ± 0.069 | 0.84 ± 0.075 | 0.632 ± 0.081 | 0.724 ± 0.12 | 0.673 ± 0.12 | 0.637 ± 0.12 | 0.584 ± 0.12 | 0.539 ± 0.11
10 µM, coculture fibroblast: HADF | 0.807 ± 0.022 | 0.772 ± 0.035 | 0.757 ± 0.051 | 0.773 ± 0.055 | 0.717 ± 0.083 | 0.706 ± 0.083 | 0.678 ± 0.094 | 0.662 ± 0.1 | 0.634 ± 0.097
10 µM, coculture fibroblast: HCFa | 0.805 ± 0.03 | 0.711 ± 0.034 | 0.679 ± 0.018 | 0.672 ± 0.034 | 0.577 ± 0.031 | 0.541 ± 0.027 | 0.484 ± 0.021 | 0.442 ± 0.034 | 0.406 ± 0.047
10 µM, coculture fibroblast: HCPF | 0.8157 ± 0.004 | 0.854 ± 0.059 | 0.809 ± 0.037 | 0.679 ± 0.013 | 0.73 ± 0.037 | 0.694 ± 0.02 | 0.658 ± 0.024 | 0.613 ± 0.014 | 0.5829 ± 0.0044
10 µM, coculture fibroblast: HHSteC | 0.8546 ± 0.005 | 0.771 ± 0.0034 | 0.746 ± 0.013 | 0.725 ± 0.027 | 0.638 ± 0.025 | 0.605 ± 0.028 | 0.553 ± 0.031 | 0.519 ± 0.025 | 0.479 ± 0.033
10 µM, coculture fibroblast: HMF | 0.8 ± 0.0095 | 0.831 ± 0.05 | 0.783 ± 0.038 | 0.706 ± 0.016 | 0.701 ± 0.056 | 0.672 ± 0.05 | 0.619 ± 0.057 | 0.585 ± 0.039 | 0.559 ± 0.038
10 µM, coculture fibroblast: HPFa | 0.9351 ± 0.0022 | 0.852 ± 0.022 | 0.812 ± 0.024 | 0.731 ± 0.025 | 0.656 ± 0.026 | 0.618 ± 0.033 | 0.551 ± 0.037 | 0.494 ± 0.042 | 0.434 ± 0.034
10 µM, coculture fibroblast: HUF | 0.884 ± 0.023 | 0.814 ± 0.037 | 0.751 ± 0.022 | 0.682 ± 0.02 | 0.63 ± 0.014 | 0.5925 ± 0.00088 | 0.526 ± 0.0068 | 0.476 ± 0.029 | 0.44 ± 0.028
10 µM, coculture fibroblast: Hs5 | 0.861 ± 0.01 | 0.933 ± 0.0012 | 0.8867 ± 0.0066 | 0.82394 ± 0.00062 | 0.776 ± 0.018 | 0.732 ± 0.027 | 0.686 ± 0.019 | 0.642 ± 0.016 | 0.622 ± 0.0083
10 µM, coculture fibroblast: Hs27A | 0.741 ± 0.012 | 0.6721 ± 0.0025 | 0.633 ± 0.0062 | 0.653 ± 0.02 | 0.537 ± 0.0099 | 0.521 ± 0.0071 | 0.4889 ± 0.0013 | 0.4612 ± 0.0019 | 0.457 ± 0.021
10 µM, coculture fibroblast: Hs343T | 0.8381 ± 0.0036 | 0.929 ± 0.025 | 0.876 ± 0.016 | 0.751 ± 0.0095 | 0.7759 ± 0.0045 | 0.7209 ± 0.0025 | 0.656 ± 0.021 | 0.621 ± 0.028 | 0.576 ± 0.021
10 µM, coculture fibroblast: WS1 | 0.858 ± 0.04 | 0.773 ± 0.022 | 0.698 ± 0.017 | 0.6203 ± 0.0014 | 0.552 ± 0.013 | 0.5013 ± 0.0031 | 0.45 ± 0.016 | 0.398 ± 0.012 | 0.37 ± 0.015
100 µM, coculture fibroblast: C12385 | 0.842 ± 0.023 | 0.745 ± 0.051 | 0.692 ± 0.047 | 0.64 ± 0.059 | 0.585 ± 0.063 | 0.549 ± 0.064 | 0.519 ± 0.064 | 0.484 ± 0.057 | 0.468 ± 0.037
100 µM, coculture fibroblast: H6013 | 0.746 ± 0.053 | 0.663 ± 0.028 | 0.633 ± 0.018 | 0.628 ± 0.024 | 0.568 ± 0.05 | 0.557 ± 0.069 | 0.53 ± 0.073 | 0.518 ± 0.076 | 0.518 ± 0.049
100 µM, coculture fibroblast: H6019 | 0.8051 ± 0.0073 | 0.73 ± 0.041 | 0.693 ± 0.066 | 0.631 ± 0.073 | 0.594 ± 0.084 | 0.574 ± 0.089 | 0.535 ± 0.099 | 0.504 ± 0.11 | 0.478 ± 0.12
100 µM, coculture fibroblast: H6076 | 0.8138 ± 0.0065 | 0.786 ± 0.018 | 0.779 ± 0.044 | 0.781 ± 0.064 | 0.747 ± 0.056 | 0.751 ± 0.073 | 0.737 ± 0.071 | 0.73 ± 0.075 | 0.749 ± 0.079
100 µM, coculture fibroblast: H6231 | 0.8145 ± 0.0047 | 0.8434 ± 0.0038 | 0.78 ± 0.011 | 0.606 ± 0.052 | 0.683 ± 0.037 | 0.641 ± 0.035 | 0.588 ± 0.02 | 0.538 ± 0.02 | 0.506 ± 0.02
100 µM, coculture fibroblast: HADF | 0.777 ± 0.0079 | 0.704 ± 0.0076 | 0.675 ± 0.015 | 0.696 ± 0.02 | 0.607 ± 0.037 | 0.583 ± 0.044 | 0.568 ± 0.047 | 0.547 ± 0.055 | 0.571 ± 0.061
100 µM, coculture fibroblast: HCFa | 0.785 ± 0.0097 | 0.6904 ± 0.0045 | 0.647 ± 0.016 | 0.657 ± 0.017 | 0.559 ± 0.011 | 0.5353 ± 0.0024 | 0.498 ± 0.0084 | 0.4719 ± 0.0035 | 0.485 ± 0.0041
100 µM, coculture fibroblast: HCPF | 0.8196 ± 0.0036 | 0.827 ± 0.02 | 0.813 ± 0.035 | 0.704 ± 0.0071 | 0.76 ± 0.045 | 0.734 ± 0.037 | 0.704 ± 0.054 | 0.672 ± 0.051 | 0.656 ± 0.053
100 µM, coculture fibroblast: HHSteC | 0.843 ± 0.028 | 0.796 ± 0.032 | 0.763 ± 0.04 | 0.745 ± 0.044 | 0.677 ± 0.04 | 0.658 ± 0.033 | 0.621 ± 0.035 | 0.591 ± 0.044 | 0.56 ± 0.039
100 µM, coculture fibroblast: HMF | 0.792 ± 0.017 | 0.775 ± 0.021 | 0.73 ± 0.034 | 0.685 ± 0.053 | 0.657 ± 0.049 | 0.649 ± 0.064 | 0.608 ± 0.074 | 0.589 ± 0.085 | 0.576 ± 0.077
100 µM, coculture fibroblast: HPFa | 0.881 ± 0.022 | 0.8 ± 0.025 | 0.778 ± 0.028 | 0.713 ± 0.018 | 0.656 ± 0.023 | 0.628 ± 0.014 | 0.5637 ± 0.0036 | 0.517 ± 0.02 | 0.482 ± 0.025
100 µM, coculture fibroblast: HUF | 0.8698 ± 0.0059 | 0.805 ± 0.043 | 0.753 ± 0.074 | 0.706 ± 0.082 | 0.669 ± 0.097 | 0.638 ± 0.1 | 0.577 ± 0.13 | 0.527 ± 0.14 | 0.494 ± 0.13
100 µM, coculture fibroblast: Hs5 | 0.83783 ± 0.0007 | 0.856 ± 0.016 | 0.8116 ± 0.0023 | 0.753 ± 0.013 | 0.682 ± 0.012 | 0.6346 ± 0.0013 | 0.584 ± 0.0073 | 0.554 ± 0.012 | 0.541 ± 0.022
100 µM, coculture fibroblast: Hs27A | 0.732 ± 0.0075 | 0.636 ± 0.0075 | 0.593 ± 0.014 | 0.625 ± 0.012 | 0.4983 ± 0.003 | 0.4756 ± 0.0035 | 0.4577 ± 0.0015 | 0.437 ± 0.0035 | 0.478 ± 0.0096
100 µM, coculture fibroblast: Hs343T | 0.831 ± 0.026 | 0.8386 ± 0.0034 | 0.801 ± 0.019 | 0.732 ± 0.037 | 0.706 ± 0.025 | 0.668 ± 0.034 | 0.61 ± 0.06 | 0.585 ± 0.083 | 0.554 ± 0.095
100 µM, coculture fibroblast: WS1 | 0.84 ± 0.0094 | 0.757 ± 0.0079 | 0.711 ± 0.013 | 0.651 ± 0.011 | 0.617 ± 0.021 | 0.588 ± 0.011 | 0.55 ± 0.029 | 0.508 ± 0.041 | 0.493 ± 0.037

Source: the supplement of paper PMC6078165
